Laboratory results reported in publication doi:10.1101/2025.09.29.679228.
These are yes or no findings as the source states them, for the method shown. Some results given as binding are weak or reduced against the parent protein; the word gives no strength.

Protein sequences, listed by entry. Tags and fused reporters are not part of them. Lines headed by an entry give the natural chain unless they say otherwise; changes in a name come on top. Chains listed by the source or under a name are the forms on record and can include a tag or linker. Residues count along the entry.
EphA2 SAM domain (isolated) (P29317, residues 908-972): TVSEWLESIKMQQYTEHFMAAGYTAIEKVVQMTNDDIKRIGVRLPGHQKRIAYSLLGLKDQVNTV
EphA2 intracellular region (ICR), kinase-dead (D739N) (P29317, form named): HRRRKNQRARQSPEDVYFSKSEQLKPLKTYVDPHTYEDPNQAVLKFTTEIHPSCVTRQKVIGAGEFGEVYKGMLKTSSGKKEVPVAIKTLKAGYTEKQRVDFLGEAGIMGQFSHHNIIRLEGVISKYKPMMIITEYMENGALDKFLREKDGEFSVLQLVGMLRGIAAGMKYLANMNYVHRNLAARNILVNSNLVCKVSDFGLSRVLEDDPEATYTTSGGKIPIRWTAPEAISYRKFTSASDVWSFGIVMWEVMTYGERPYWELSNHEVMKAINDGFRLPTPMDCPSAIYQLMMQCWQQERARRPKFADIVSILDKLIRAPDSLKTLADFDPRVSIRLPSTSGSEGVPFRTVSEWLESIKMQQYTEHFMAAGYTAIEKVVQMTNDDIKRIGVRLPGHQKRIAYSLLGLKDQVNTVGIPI

Experiments:
[1] = target: EphA2 intracellular region (ICR), kinase-dead (D739N) (human) (UniProt P29317); experiment: MST
[2] = target: EphA2 intracellular region (ICR), kinase-dead (D739N) (human) (UniProt P29317); experiment: NMR titration
[3] = target: EphA2 intracellular region (ICR), kinase-dead (D739N) (human) (UniProt P29317); experiment: MST; remark: listed apart in the source

binding [1] | binding [2] | binding [3] | Molecule
binds | binds | – | EphA2 SAM domain (isolated) (from UniProt P29317 908-972) (domain or fragment)
– | – | binds | SHIP2 SAM domain (isolated) (domain or fragment, UniProt O15357 1200-1258) GMSAWLRAIGLERYEEGLVHNGWDDLEFLSDITEEDLEEAGVQDPAHKRLLLDTLQLSK
